Results taken from article PMC11794946.
Results are given in words; binding and its absence hold for the method and conditions named. In cells and extracts the contact can be indirect. These calls come from enrichment with a bait or labelling near it, and not all partners need be listed.

The chains behind the UniProt entries cited, without tags or fusion partners.
UniProt Q9BXC0: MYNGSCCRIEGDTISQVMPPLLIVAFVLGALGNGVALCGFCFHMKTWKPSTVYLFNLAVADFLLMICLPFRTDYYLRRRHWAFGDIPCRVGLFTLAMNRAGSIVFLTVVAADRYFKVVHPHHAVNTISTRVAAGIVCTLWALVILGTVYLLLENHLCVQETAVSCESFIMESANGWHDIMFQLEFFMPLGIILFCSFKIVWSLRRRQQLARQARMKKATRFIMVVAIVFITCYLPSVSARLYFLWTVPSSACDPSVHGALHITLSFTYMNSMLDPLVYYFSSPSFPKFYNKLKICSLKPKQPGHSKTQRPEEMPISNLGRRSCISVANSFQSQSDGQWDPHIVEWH
UniProt Q92922: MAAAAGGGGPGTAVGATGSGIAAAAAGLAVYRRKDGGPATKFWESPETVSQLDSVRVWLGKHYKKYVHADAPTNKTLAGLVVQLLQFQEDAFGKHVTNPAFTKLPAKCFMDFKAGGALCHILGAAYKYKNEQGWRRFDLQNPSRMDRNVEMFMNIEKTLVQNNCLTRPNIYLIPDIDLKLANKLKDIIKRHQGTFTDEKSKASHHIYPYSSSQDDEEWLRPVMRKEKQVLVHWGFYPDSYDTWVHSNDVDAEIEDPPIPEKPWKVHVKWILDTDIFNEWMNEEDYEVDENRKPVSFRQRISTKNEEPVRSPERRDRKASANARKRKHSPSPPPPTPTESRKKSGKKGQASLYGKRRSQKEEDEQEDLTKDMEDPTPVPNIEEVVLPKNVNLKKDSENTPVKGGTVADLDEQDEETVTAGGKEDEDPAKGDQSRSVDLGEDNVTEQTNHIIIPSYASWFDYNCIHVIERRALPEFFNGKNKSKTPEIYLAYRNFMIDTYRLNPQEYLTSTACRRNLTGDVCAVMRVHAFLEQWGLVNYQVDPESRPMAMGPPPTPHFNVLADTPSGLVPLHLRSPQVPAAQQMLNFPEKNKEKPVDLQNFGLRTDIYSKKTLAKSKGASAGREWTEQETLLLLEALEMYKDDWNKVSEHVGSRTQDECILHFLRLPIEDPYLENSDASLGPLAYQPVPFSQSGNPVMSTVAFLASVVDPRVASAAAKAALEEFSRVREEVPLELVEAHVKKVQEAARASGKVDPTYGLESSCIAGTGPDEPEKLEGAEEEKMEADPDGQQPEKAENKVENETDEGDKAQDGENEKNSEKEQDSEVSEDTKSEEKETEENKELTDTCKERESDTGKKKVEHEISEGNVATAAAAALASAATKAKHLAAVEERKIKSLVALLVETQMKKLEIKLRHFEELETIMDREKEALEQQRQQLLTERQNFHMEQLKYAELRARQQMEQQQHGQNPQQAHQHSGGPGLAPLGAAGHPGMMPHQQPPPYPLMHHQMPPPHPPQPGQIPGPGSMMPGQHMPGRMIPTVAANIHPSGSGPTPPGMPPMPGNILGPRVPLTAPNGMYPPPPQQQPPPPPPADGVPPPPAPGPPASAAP
UniProt Q9C086: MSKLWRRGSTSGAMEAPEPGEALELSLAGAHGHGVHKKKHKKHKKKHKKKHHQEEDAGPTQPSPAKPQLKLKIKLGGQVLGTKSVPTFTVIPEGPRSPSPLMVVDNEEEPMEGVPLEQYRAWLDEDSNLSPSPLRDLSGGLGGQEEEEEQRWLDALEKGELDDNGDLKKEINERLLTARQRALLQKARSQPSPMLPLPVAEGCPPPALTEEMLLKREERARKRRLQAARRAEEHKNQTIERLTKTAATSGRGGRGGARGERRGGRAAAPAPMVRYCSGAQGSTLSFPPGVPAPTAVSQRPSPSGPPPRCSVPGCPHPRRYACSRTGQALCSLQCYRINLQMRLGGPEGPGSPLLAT
UniProt Q96L73: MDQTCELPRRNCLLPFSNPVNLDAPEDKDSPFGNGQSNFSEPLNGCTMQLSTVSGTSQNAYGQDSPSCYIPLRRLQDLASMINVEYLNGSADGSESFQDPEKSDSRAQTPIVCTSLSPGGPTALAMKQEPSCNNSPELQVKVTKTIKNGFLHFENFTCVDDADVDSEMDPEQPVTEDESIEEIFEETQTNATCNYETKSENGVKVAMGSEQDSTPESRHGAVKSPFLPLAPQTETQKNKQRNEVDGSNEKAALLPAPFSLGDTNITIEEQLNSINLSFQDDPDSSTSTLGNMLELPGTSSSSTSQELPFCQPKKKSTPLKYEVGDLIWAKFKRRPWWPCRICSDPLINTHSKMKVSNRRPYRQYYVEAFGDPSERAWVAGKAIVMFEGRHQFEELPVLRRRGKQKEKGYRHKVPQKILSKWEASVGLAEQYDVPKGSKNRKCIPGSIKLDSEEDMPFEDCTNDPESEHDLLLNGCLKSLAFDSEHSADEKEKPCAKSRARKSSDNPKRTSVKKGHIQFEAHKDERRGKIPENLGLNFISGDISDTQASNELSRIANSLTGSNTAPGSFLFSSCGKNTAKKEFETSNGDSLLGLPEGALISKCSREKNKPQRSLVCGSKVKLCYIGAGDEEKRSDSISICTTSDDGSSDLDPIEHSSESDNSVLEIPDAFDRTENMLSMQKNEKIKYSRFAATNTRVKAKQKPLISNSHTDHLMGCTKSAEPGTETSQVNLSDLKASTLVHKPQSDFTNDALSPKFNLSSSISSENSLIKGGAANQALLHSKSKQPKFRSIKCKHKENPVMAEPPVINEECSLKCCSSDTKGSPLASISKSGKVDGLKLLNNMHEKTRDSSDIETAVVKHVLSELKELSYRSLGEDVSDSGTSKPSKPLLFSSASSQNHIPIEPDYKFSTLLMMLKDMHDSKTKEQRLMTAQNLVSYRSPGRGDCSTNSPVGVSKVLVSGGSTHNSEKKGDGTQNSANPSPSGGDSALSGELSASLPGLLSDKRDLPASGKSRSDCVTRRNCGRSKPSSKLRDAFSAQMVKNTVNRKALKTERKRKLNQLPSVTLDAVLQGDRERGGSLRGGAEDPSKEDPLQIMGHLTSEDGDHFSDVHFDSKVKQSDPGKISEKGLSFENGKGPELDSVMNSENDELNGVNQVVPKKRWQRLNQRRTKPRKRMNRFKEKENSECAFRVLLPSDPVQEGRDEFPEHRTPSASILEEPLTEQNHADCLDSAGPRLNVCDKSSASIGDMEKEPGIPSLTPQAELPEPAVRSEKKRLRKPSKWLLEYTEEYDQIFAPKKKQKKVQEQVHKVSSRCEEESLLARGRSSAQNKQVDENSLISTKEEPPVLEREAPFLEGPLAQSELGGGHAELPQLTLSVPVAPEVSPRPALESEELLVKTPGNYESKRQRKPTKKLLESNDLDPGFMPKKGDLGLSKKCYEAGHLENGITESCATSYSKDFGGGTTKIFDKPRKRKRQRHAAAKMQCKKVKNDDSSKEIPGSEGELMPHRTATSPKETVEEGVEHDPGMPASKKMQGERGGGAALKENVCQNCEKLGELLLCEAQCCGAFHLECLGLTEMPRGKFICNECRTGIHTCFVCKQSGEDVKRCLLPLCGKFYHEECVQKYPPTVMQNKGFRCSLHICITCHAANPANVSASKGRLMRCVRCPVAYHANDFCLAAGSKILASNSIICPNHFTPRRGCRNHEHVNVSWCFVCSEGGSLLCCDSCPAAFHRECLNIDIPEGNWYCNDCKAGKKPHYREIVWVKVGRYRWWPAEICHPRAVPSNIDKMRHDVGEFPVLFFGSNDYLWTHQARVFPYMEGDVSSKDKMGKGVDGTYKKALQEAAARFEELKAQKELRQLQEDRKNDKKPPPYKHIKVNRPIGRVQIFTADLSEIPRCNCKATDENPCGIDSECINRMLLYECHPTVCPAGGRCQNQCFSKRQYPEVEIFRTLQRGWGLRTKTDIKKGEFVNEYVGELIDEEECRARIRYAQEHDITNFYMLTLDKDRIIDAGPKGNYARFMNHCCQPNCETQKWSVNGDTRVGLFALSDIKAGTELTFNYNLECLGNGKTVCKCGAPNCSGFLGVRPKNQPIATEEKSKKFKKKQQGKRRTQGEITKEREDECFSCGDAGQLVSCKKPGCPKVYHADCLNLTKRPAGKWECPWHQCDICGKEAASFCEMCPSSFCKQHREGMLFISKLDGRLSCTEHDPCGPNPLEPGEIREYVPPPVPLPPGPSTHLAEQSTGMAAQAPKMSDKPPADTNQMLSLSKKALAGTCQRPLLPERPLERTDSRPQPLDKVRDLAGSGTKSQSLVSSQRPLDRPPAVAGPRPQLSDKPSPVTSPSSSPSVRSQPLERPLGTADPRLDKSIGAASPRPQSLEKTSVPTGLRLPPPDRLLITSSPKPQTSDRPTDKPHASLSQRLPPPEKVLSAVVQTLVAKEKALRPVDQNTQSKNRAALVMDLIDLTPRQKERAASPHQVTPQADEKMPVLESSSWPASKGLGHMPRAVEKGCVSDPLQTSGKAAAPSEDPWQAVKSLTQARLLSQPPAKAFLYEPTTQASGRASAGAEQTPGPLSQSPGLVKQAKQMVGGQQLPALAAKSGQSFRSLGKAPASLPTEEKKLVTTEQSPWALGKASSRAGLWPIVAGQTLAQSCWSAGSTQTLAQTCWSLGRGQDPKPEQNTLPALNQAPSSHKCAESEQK

Molecular target: HCAR1-Bio-ID fusion protein (HA-tagged HCAR1-BirA) (human) (UniProt Q9BXC0)
Assay: proximity labelling; BioID2: stable HeLa cells expressing HCAR1-BioID2-HA, biotin 50 uM with 10 mM lactate or PBS; nuclei isolated, lysed in non-denaturing buffer, streptavidin beads, LC-MS/MS; enrichment against cells with BirA alone

Row | binding | Substance
1 | binds | SMARCC1 (from UniProt Q92922 1-1105)
2 | binds | INO80b (from UniProt Q9C086 1-356)
3 | binds | NSD1 (from UniProt Q96L73 1-2696) (enzyme)
